Measurements reported in PubChem BioAssay AID686943 (Drosophila RNAi Screening Center, 2013).

- Assay: 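Search across the genome for regulators of signalling from receptor tyrosine kinase to ERK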 (primary screen)
- System: Drosophila S2R+ haemocyte-like cells expressing YFP-tagged ERK (Rolled)
- Knock-down reagent: long dsRNA against Drosophila genes
- Challenge: insulin stimulation versus unstimulated cells; dose and duration not given
- Measurement: 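Per-plate z-scores of phospho-ERK immunostaining normalised to YFP-tagged ERK, measured with and without insulin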
- Direction: replicate 1, z-score of dpERK with insulin: higher = more active ERK per ERK-YFP after insulin
The deposit covers about 23,000 reagents; shown is a random part of those with a known target gene and a result. 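Extra replicates exist only for a retested subset of genes; insulin dose and duration not given; both raised and lowered dpERK matter.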 Reagents against one gene are numbered here. Not all columns of the deposit are shown. Not given: the amount of reagent, the time to read-out.

target | reagent | replicate 1, z-score of dpERK with insulin
Rad60 | 1 | 0.72
CG12679 | 1 | -1.29
SamDC | 1 | 0.82
MAPk-Ak2 | 1 | -0.58
CG30378 | 1 | -0.57
CG13124 | 1 | 0.14
Nop56 | 1 | -0.27
ppk17 | 1 | 0.25
Cyp6a20 | 1 | 0.31
CG10089 | 1 | -0.1
CG10089 | 2 | -1.46
Cyp4d14 | 1 | -0.74
BNIP3 | 1 | -0.14
Dhc36C | 1 | 0.18
ppk | 1 | 0.4
alpha-Est5 | 1 | 0.14
CR18217 | 1 | 0.42
Eig71Ef | 1 | 0.4
CG13110 | 1 | 0.54
CG3777 | 1 | 0.63
CG8563 | 1 | 0.08
alpha-Est2 | 1 | -0.29
hoka | 1 | -0.18
aub | 1 | 0.51
Samuel | 1 | -1.18
Samuel | 2 | -1.86
Samuel | 3 | 0.2
Samuel | 4 | -0.69
key | 1 | -1.47
Ugt37D1 | 1 | 0.25
Cp19 | 1 | -0.8
csw | 1 | -2

8 entries from above, ordered by “replicate 1, z-score of dpERK with insulin”, ascending.
target | reagent | replicate 1, z-score of dpERK with insulin
CG10089 | 2 | -1.46
Cyp4d14 | 1 | -0.74
BNIP3 | 1 | -0.14
CG10089 | 1 | -0.1
Dhc36C | 1 | 0.18
ppk17 | 1 | 0.25
Cyp6a20 | 1 | 0.31
ppk | 1 | 0.4

The list goes on:
target | reagent | replicate 1, z-score of dpERK with insulin
Rcd2 | 1 | -3.03
KrT95D | 1 | -0.61
ptc | 1 | -0.51
ptc | 2 | -0.28
CG12307 | 1 | -0.01
H15 | 1 | -0.3
H15 | 2 | 0.17
YL-1 | 1 | 1.41
CG14929 | 1 | -0.01
Efr | 1 | 0.06
CG15740 | 1 | -3.39
GlcT | 1 | 0.6
arx | 1 | 0.18
m | 1 | -0.07
RpS6 | 1 | -2.63
CG1637 | 1 | -0.31
CG1637 | 2 | 0.5
CG1637 | 3 | 0.35
CG14326 | 1 | -0.24
Pex10 | 1 | 0.4
Pex10 | 2 | 0.22
Cwc25 | 1 | 1.16
CG33017 | 1 | -0.26
CG33017 | 2 | -0.22
zfh1 | 1 | -0.77
zfh1 | 2 | -3.52
Lsp1alpha | 1 | -0.24
glob1 | 1 | 0.59
CG11035 | 1 | -0.03
Dhps | 1 | 1.63
Acox57D-d | 1 | 1.31
phyl | 1 | -0.17
CG8569 | 1 | 0.4
Tbh | 1 | 0.23
Cyp4d2 | 1 | 0.11
RhoGEF2 | 1 | 0
CG13540 | 1 | 0
CG14966 | 1 | 0.13
NFAT | 1 | -6.4
NFAT | 2 | 0.26
CG31267 | 1 | 0.36
